Where a sequence shows no end group, the ends are not given.
Assay: general procedure: Fmoc solid-phase peptide synthesis; 2C1-Trt Resin; HOBT/DIC
Conditions: whole synthesis, scale 10.0 g resin, hydrochloride (conjugates)

In the case of CRPARPAR, the isolated mass is reported as 6.1 g.

Reference: patent US10869863B2 (priority 2016, dated 2020)
